Values from PubChem BioAssay AID1259405 (NCATS, 2018)

- Screen: 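Mouse-designed siRNAs used to find CHO productivity engineering targets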 (primary screen)
- Cells: Chinese hamster CHO-K1 ovary cells with stable secreted eGFP expression
- Knock-down reagent: single siRNA against mouse genes, 0.8 pmol siRNA per well (2 µl of 400 nM stock)
- Duration: 3 days
- Measured: 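Per-well intracellular GFP measured by laser scanning cytometry, plus viability from ATP luminescence, each relative to plate median of non-targeting control wells, in %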
- Direction: GFP, % of control: higher = more GFP per well, higher productivity; viability (ATP), % of control: higher = more viable cells (more ATP)
- Active means: 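a knock-down is called active if GFP reaches 120% or more of non-targeting control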
This is a random part of about 50,000 reagents. In the full data, about 4,000 (8%) got an active call. 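Mouse siRNA library applied to hamster cells; one well for each siRNA.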 The numbers tell different reagents against one gene apart.

| target gene | reagent | GFP, % of control | viability (ATP), % of control | Call |
| --- | --- | --- | --- | --- |
| Cfap20 | 1 | 58.3 | 54 | inactive |
| Cfap20 | 2 | 73.2 | 79.5 | inactive |
| Cfap20 | 3 | 68.6 | 68.5 | inactive |
| Phlpp1 | 1 | 76.2 | 75.3 | inactive |
| Phlpp1 | 2 | 105 | 45 | inactive |
| Phlpp1 | 3 | 66.9 | 104 | inactive |
| Lurap1l | 1 | 47.8 | 63 | inactive |
| Lurap1l | 2 | 117 | 72.2 | inactive |
| Lurap1l | 3 | 83 | 65.7 | inactive |
| Zfp280c | 1 | 57.1 | 69.9 | inactive |
| Zfp280c | 2 | 67.7 | 69.7 | inactive |
| Zfp280c | 3 | 62.1 | 83.9 | inactive |
| Gbx2 | 1 | 65.4 | 81.5 | inactive |
| Gbx2 | 2 | 33.4 | 50.1 | inactive |
| Gbx2 | 3 | 64.2 | 48.8 | inactive |
| Mtss2 | 1 | 60.9 | 70.8 | inactive |
| Mtss2 | 2 | 75.2 | 89.5 | inactive |
| Mtss2 | 3 | 102 | 105 | inactive |

The list goes on; the last 4 above are carried over.
| target gene | reagent | GFP, % of control | viability (ATP), % of control | Call |
| --- | --- | --- | --- | --- |
| Gbx2 | 3 | 64.2 | 48.8 | inactive |
| Mtss2 | 1 | 60.9 | 70.8 | inactive |
| Mtss2 | 2 | 75.2 | 89.5 | inactive |
| Mtss2 | 3 | 102 | 105 | inactive |
| Ecrg4 | 1 | 101 | 79.9 | inactive |
| Ecrg4 | 2 | 52.3 | 67.2 | inactive |
| Ecrg4 | 3 | 109 | 56.6 | inactive |
| Dstn | 1 | 50.6 | 63 | inactive |
| Dstn | 2 | 88.3 | 88.6 | inactive |
| Dstn | 3 | 79.7 | 71 | inactive |
| Or52e5 | 1 | 100 | 74.2 | inactive |
| Or52e5 | 2 | 135 | 105 | active |
| Or52e5 | 3 | 67.3 | 96.2 | inactive |
| Fzd3 | 1 | 62 | 92.1 | inactive |
| Fzd3 | 2 | 62.4 | 67.9 | inactive |
| Camkk1 | 1 | 87.1 | 119 | inactive |
| Camkk1 | 2 | 48.6 | 43.5 | inactive |
| Camkk1 | 3 | 72.3 | 61.4 | inactive |
| Snx14 | 1 | 127 | 70.2 | active |
| Snx14 | 2 | 45.5 | 65 | inactive |
| Snx14 | 3 | 70.5 | 54.1 | inactive |
